Data reported in US7858806B2, “Crystal form of 5-hydroxy-1-methylhydantoin” (Nippon Zoki Pharmaceutical Co., Ltd., priority 2002, dated 2010).
Values joined by “and” are separate entries in the source; they are usually repeats but may differ in a detail not shown here. Identical values can stand only once.

Assay: Residual organic solvent by capillary gas chromatography
Format: physicochemical
Procedure: The present invention relates to a novel crystal form of 5-hydroxy-1-methylhydantoin where there is substantially no residue of organic solvent. Here, the expression reading “substantially no residue of organic solvent” means that the residual organic solvent is not more than the detection limit (1 ppm) when the measurement is carried out according to a conventional method for the measurement of residual organic solvent such as a gas chromatography mentioned in “Test Method for Residual Solvent” of the Japanese Pharmacopoeia (14th edition).
In the following Examples, an example of process for the production of 5-hydroxy-1-methylhydantoin and its II-form crystals of the present invention will be described in more detail. […] Infrared absorption spectrum was measured by a potassium bromide disk method using Fourier-transform infrared spectrophotometer (Horiba) of FT-200 type. […] Melting point was measured using a melting point measuring apparatus (Yamato Kagaku) of MP-21 type. Nuclear magnetic resonance spectrum (^1H-NMR) was measured by a nuclear magnetic resonance apparatus (Bruker) of ARX-500 type by using TMS (δ=0) as an internal standard substance. […]
The residual organic solvent (acetone) in the resulting I-form crystals was measured by a capillary gas chromatography (Headspace method). […]

Compound	residual organic solvent used during purification such as acetone (direct injection method, detection limit 1 ppm, crystals recrystallized from water)	residual organic solvent (acetone) (Headspace method, 4 lots, crystals recrystallized from acetone (Reference Example 1))
CN1C(=O)NC(=O)C1O (centres unmarked) [II-form crystals, 5-hydroxy-1-methylimidazolidin-2,4-dione]	≤ 1 ppm	
CN1C(=O)NC(=O)C1O (centres unmarked) [I-form crystals, 5-hydroxy-1-methylimidazolidin-2,4-dione]		1660±150 ppm and 1430±253 ppm and 1621±70 ppm and 1336±144 ppm
